These are literature values, as cited in patent publication US5840712A, “Water soluble vitamin B12 receptor modulating agents and methods related thereto” (Receptagen Corporation, priority 1995, dated 1998).

The conditions of the data set: J. Pharmacol. Exp. Ther. 255:867-74, 1990; Ren. Fail. 14:351-7, 1992.

Where only a bound is given, the exact number is not on record here.

In the case of gentamycin, the “concentration in lysosomes relative to the extracellular concentration” value is on record as at most 300 fold.
